We go through one substance from PMC5559427.

Protein sequences, listed by entry. Tags and fused reporters are not part of them.
UniProt P47819: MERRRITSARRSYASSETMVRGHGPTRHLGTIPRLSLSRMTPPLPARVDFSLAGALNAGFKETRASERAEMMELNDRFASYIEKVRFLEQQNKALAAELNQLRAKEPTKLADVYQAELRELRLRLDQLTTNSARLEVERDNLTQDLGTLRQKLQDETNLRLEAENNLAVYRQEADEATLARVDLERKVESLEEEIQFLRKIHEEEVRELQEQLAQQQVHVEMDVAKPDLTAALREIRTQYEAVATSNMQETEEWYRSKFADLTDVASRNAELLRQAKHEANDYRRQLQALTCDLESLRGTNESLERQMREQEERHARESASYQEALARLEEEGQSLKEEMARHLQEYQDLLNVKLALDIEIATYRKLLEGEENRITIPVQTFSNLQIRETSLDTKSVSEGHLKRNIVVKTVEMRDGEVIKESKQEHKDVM
UniProt P70536: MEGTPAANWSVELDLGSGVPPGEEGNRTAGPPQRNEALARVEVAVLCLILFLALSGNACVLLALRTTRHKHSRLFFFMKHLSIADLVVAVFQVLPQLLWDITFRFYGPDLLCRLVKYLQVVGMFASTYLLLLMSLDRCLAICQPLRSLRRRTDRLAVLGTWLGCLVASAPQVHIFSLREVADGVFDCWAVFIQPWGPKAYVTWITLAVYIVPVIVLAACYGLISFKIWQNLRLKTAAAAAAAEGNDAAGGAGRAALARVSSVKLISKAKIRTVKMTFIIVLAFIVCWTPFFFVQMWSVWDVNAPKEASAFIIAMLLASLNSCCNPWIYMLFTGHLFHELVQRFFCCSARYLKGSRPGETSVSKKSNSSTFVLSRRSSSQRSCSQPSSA

The target of this test is glial fibrillary acidic protein (rat (endogenous in SON of Sprague-Dawley rats)) (UniProt P47819). The test is described as follows: co-IP; SON lysates of three rats, precleared with protein G agarose; mouse anti-GFAP overnight at 4°C, captured on protein G agarose; Western blot of OTRs; two duplicates (IP1, IP2) beside total lysis.

No constants are given. Whether binding was seen depends on the method and setting. In cells and extracts the contact can be indirect. Some entries that bind do so weakly or less than the wild type.

On to “oxytocin receptor (from UniProt P70536 1-388)”, for which the binding entry is given as “binds”.
